Laboratory results reported in article PMC12523843, “Kuwanon A Targeted YWHAB in Hepatocellular Carcinoma Cells to Inhibit the Raf/MEK/ERK Signaling Pathway” (Cells, 2025).

Tested on: normal human liver cells (L-O2)
Assay: MTT IC50 determination in normal liver cells
Type: cell-based
Conditions: L-O2 vs MHCC97 H, MTT method
Procedure: Cell viability was assessed using MTT experiments. Cells, together with KA, were seeded into 96-well plates at a density of 2000 cells per well with three replicates per condition. DMSO was used as a control. At designated time points, 20 μL of MTT (Sigma, St. Louis, MO, USA) solution was added to each well and incubated for 3 h. After removing the culture medium, 200 μL of DMSO was added to dissolve the formazan crystals. The absorbance was then measured using a microplate reader at a wavelength of 560 nm.

For sanggenone D, the “ratio of IC50 in normal liver cells compared to tumor cells” value (from here on “ratio of IC50 in normal liver cells”) was “greater than 3”.
`CC(C)(O)CCc1c(-c2ccc(O)cc2O)oc2c3c(cc(O)c2c1=O)OC(C)(C)C=C3` [Morusinol] was tested, and the “ratio of IC50 in normal liver cells” value was “greater than 3”.
In the case of `CC(C)=CCC/C(C)=C/Cc1c(O)ccc(-c2oc3cc(O)cc(O)c3c(=O)c2CC=C(C)C)c1O` [L8-06, 3'-geranyl-3-prenyl-2',4',5,7-tetrahydroxyflavone], the “ratio of IC50 in normal liver cells” value is reported as “greater than 3”.
With `CC(C)=CCc1c(-c2ccc(O)cc2O)oc2c([C@H]3C=C(C)C[C@@H](c4ccc(O)cc4O)[C@@H]3C(=O)c3ccc(O)cc3O)c(O)cc(O)c2c1=O` [Kuwanon G, kuwanon G] the “ratio of IC50 in normal liver cells” value was “greater than 3”.
In the case of `CC(C)=CCc1c(-c2ccc(O)c3c2OC(C)(C)C=C3)oc2cc(O)cc(O)c2c1=O` [KA, Kuwanon A], the “ratio of IC50 in normal liver cells” value is reported as “greater than 3”.
With sanggenol L the “ratio of IC50 in normal liver cells” value was “greater than 3”.
With `CC(C)=CCc1c(-c2ccc(O)cc2O)oc2c3c(cc(O)c2c1=O)OC(C)(C)C=C3` [Morusin] the “ratio of IC50 in normal liver cells” value was “greater than 3”.
`CC(C)=CCc1c(-c2ccc(O)cc2O)oc2c(CC=C(C)C)c(O)cc(O)c2c1=O` [Mulberrin] was tested, and the “ratio of IC50 in normal liver cells” value was “greater than 3”.
In the case of `Cc1cc2c3c(c1)-c1c(O)cc(-c4cc5ccc(O)cc5o4)cc1OC3(c1ccc(O)cc1O)Oc1cc(O)ccc1-2` (stereo not shown) [Albanol B, albanol B], the “ratio of IC50 in normal liver cells” value is reported as “greater than 3”.
For sanggenone C, the “ratio of IC50 in normal liver cells” value was “greater than 3”.
